Percent effect of library compounds

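Phenotypic screen: M. tuberculosis growth, cholesterol and DPPC medium, 4 days; the read-out is not stated. Tested at 50 µM. Direction is inferred from retests: higher values go with more growth inhibition. Of about 69,000 compounds tested this way, about 370 (0.54%) reached 50% or more in at least one test.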

Values are the deposited “Percent Effect”, in %.
The record does not define 0% and 100%; most values in the screen are far below 50% and negative numbers occur (in some assays of this library far below -100).
The compounds are a random part of those screened.
Two or more numbers in one place are separate tests of the same structure; such repeats can differ widely.

Compound	effect
Cc1ccc(CN2CCN(C3CCCC3)CC2CCO)o1 (centres undefined)	-1.449%
O=C(O)C(F)(F)F.[H][C@]12CCN(c3ccc(C)nn3)C[C@@]1([H])CN(Cc1cc[nH]n1)C2	-3.138%
Cc1nc(CCC(=O)NC2CCC2)cc(C2CCCNC2)n1 (centres undefined)	-0.7825%
CCN(CC)CCSc1nnc(N2CCN(c3ccc(F)cc3)CC2)s1	4.451%
O=C(O)C(F)(F)F.[H][C@@]12CCN(S(=O)(=O)C3CC3)[C@@]1([H])CCN2Cc1ccc(C)s1	1.983%
COCCNC(=O)NCc1cccc(-n2ccnc2)c1	-3.481%
COCCN(C)C[C@@H]1CN(C(=O)c2ccc(O)c(Cl)c2)C[C@@H]1CO	-1.001%
CSCC(CCO)NC(=O)c1cccc(Cl)c1F (centres undefined)	5.762%
O=C(O)C(F)(F)F.[H][C@@]12CCN(c3ncccn3)C[C@]1(C(=O)NCc1ccco1)CCO2	-31.28%
CC(C)C(C)(C#N)NC(=O)CN1CCCN(Cc2ccccc2F)CC1 (centres undefined)	-17.09% & 2.155%
N#CCCN(CCC#N)C(=O)CN1CCCC1Cc1cccc(F)c1 (centres undefined)	-4.664% & 3.626%
CCn1nc2c(cc1=O)CN(CC(=O)N(C)c1nccs1)CC2	-6.966%
Cn1nc(C(=O)N2CCC(Oc3ccc(C#N)cn3)CC2)ccc1=O	14.11%
O=C(O)C(F)(F)F.O=C(O)C(F)(F)F.[H][C@@]12COC[C@@H](CC(=O)N3CCOCC3)[C@]1([H])CN(Cc1cccnc1)C2	4.124%
c1cc(-c2n[nH]c(CNc3nnc(C4CC4)o3)n2)ccn1	-0.2663%
Cn1cnc(S(=O)(=O)N2CCN(Cc3ccco3)CC2)c1Cl	-19.12%
COc1ccnc(N2CCN(C(=O)COCC(F)(F)F)CC2)n1	-13.34%
CCn1cc(CN2CCCN(C(=O)c3c(C)oc(C)c3C)CC2)cn1	3.348%
CCOc1ccc(C(=O)N(Cc2cnn(C)c2)C(C)C)cc1	1.2%
Cc1cc(C(=O)NCc2csc(N(C)C)n2)c2ccc(C)c(C)c2n1	67.14%
[H][C@]12CCCCN1CCC[C@@]2(O)Cn1cnc(Cl)c1Cl	-14.33%
Cc1c(C)n(-c2ccccn2)c2nc3c(c(N)c12)CCCCC3	-9.278%
O=C(O)C(F)(F)F.[H][C@@]12COC[C@]1(CNS(=O)(=O)C1CC1)CN(c1ncc(F)cn1)C2	-33.8%
CN1CCC(N(Cc2ccccc2F)C(=O)NCc2ccncc2)CC1	-7.357% & 6.687%
Cl.O=C(Nc1cccc(CNCc2cccs2)c1)C1CC1	-7.518%
Cc1occc1C(=O)N1CCCN(Cc2cnn(C(C)C)c2)CC1	4.067% & -8.67%
CN(C)Cc1csc(-c2nccn2CCc2cccnc2)c1	10.91%
[H][C@@]12CN(C(=O)c3ccncc3)C[C@]1([H])OCCN2CCN1CCCC1	22.37% & -0.5263%
O[C@@H]1C[C@@H](c2nc(Cc3ccccc3)no2)N(CC2CC2)C1	4.41%
COc1cccc(-n2nnc(C(=O)N3CCCC3)c2C)c1	8.633%
Fc1ccc(C2(CNC3=NCCCN3)CCC2)cc1.I	-25.62% & -10.8%
O=C(Nc1ccccc1)C1CN(CC2CC2)CC12CCOCC2.O=C(O)C(F)(F)F (centres undefined)	20.08%
Cc1nn(CCO)c(C)c1CNC1CCC(C)(C)c2ccccc21 (centres undefined)	2.595%
COCC[C@]1(O)CCN(Cc2nc(C(C)C)cs2)C[C@H]1C	14.83%
Cc1ccccc1-c1cc(NC(=O)NC2CCC(O)CC2)n(CCO)n1 (centres undefined)	-37.58%
CC(C)c1nc(C2CCCN(c3cnc4ccccc4n3)C2)no1 (centres undefined)	39.74%
Cc1noc(NC(=O)c2ccc(C)c(F)c2)n1	31.47%
Cc1ccc(=O)n(CC2(O)CCN(Cc3cc(C)c(O)c(C)c3)CC2)n1.O=C(O)CC(O)(CC(=O)O)C(=O)O	-17.96%
O[C@H]1CN(CCOc2ccc(F)cc2)CC[C@@]12CCCO2	13.01%
[H][C@@]12CCN(Cc3cccnc3)C(=O)[C@@]1([H])CN(Cc1ccoc1)C2	-7.833%
CC1(C)OC(=O)N(CC(=O)N2CCC(c3ccccc3Cl)C2)C1=O (centres undefined)	10.75%
CN(CC1CCCN1C)c1nccc(C2CCCC2)n1 (centres undefined)	-18.36% & 16.27%
COC(=O)CNc1ccc(-c2nc(Cc3ccc(OC)cc3)no2)cn1	26.09%
COc1ccccc1COCC(O)CN(C)Cc1cccc(Cl)c1 (centres undefined)	13.68%
CCC(=O)N1CCc2onc(CNS(C)(=O)=O)c2C1	-25.76%
CCc1cc(CNC(=O)N2CCC(Cc3cnn(C)c3)C2)on1 (centres undefined)	14.2%
CC(=O)N(Cc1ncc(C)o1)C1CCN(Cc2ccccc2C#N)C1 (centres undefined)	-15.69%
COc1ccccc1OCCNC(=O)CN1CCc2cncnc2C1	-12.56%
CC(=O)N[C@@H]1CN(Cc2ccccc2C(=O)O)C[C@H]1C(C)C	0.1999%
Cc1cc(C)n(-c2ccc(CNCc3cccc(C#N)c3)cn2)n1	18.9%
CCN(Cc1cccc(Cl)c1)Cc1nc2c(cnn2C)c(=O)[nH]1	-11.94%
O=C(O)C(F)(F)F.[H][C@]12C[C@H](C(=O)NC)N(S(C)(=O)=O)[C@@]1([H])CN(C(=O)c1ccncc1)C2	-13.46%
CCc1nc(CN2CCCN(C(=O)c3cccn3C)CC2)cs1	16.93%
Cc1ccc(N2CCC3(CCN(C(=O)c4ccnnc4)CC3)CC2)nn1.O=C(O)C(F)(F)F	-14.31%
Cc1nc(CN2CCCN(C(=O)CCc3ccco3)CC2)cs1	13.81%
CCn1c(C)nnc1CN(C)C1CCN(CCCOC)C1 (centres undefined)	-9.557%
CC1=Nc2c(c(=O)[nH]n2C(C)C)C(c2ccc3c(c2)n(C)c(=O)n3C)S1 (centres undefined)	-13.83%
OC1CN(c2nc3c(C(F)(F)F)cccc3s2)C1	-8.776%
O=C(Nc1cnn(-c2ccccc2Cl)c1)NC1CCC(O)CC1 (centres undefined)	-20.7%
CC(=O)N(CCc1ccccc1)CC(=O)NC(C)(C)C#N	10.13%
CCNc1cc(N2CCN(C(=O)c3ccc(OC)cc3)CC2)nc(C)n1	14.74% & 12.84%
COc1ccc(Cc2noc(C3=NN(C)C(=O)CC3)n2)cc1OC	-8.851%
O=C(NCCNc1ccccn1)N1CCC(O)CC1	-22.59%
Cn1c(C2CC2)nc2c1CCN(CC(=O)Nc1ccncc1)C2	-22.79%
CCCNC(=O)CSc1nnc2[nH]c(=O)c3c(n12)CCCC3	-15.26%
CN1CCC2(Cc3ccccc3CN(C(=O)CCN)C2)C1 (centres undefined)	-29.16%
[H][C@]12CCC[C@@]1(COCC1CCOCC1)CN(C(=O)c1ocnc1C)C2	-11.06%
COCCNC(=O)Nc1ccn(-c2cccc(C(F)(F)F)c2)n1	15.33%
COc1ccc(C(C)=O)cc1CN1CCn2cccc2C1C (centres undefined)	4.677% & -3.709%
CCN(CCOc1ccc(F)cc1)C(=O)c1ccncc1Cl	-3.475%
Cc1nnc(NC(=O)NC(C)C(=O)NC2CCCC2)s1 (centres undefined)	-5.729%
Cl.c1nnc(Nc2cncc(C3CCCN3)n2)s1 (centres undefined)	6.346% & 11.34%
CN(C)C(=O)N1CCc2c(CNc3ncccn3)cncc2C1	12%
CCN(CC)C(=O)CN(C)Cc1nc2c(cnn2C)c(=O)[nH]1	-7.466%
CCn1ccnc1CN1CCC(N(Cc2ncc(C)o2)C(C)=O)C1 (centres undefined)	-12.92%
CNc1ncc(C(=O)N2CCOC(C(=O)Nc3ccccc3)C2)cn1 (centres undefined)	-4.2%
CCSCCn1cc(-c2nccs2)nn1	-1.741%
Cc1cc(C)nc(N2CCCC(c3cccc(-n4ccnc4)n3)C2)n1 (centres undefined)	55.39%
O=C(Cc1csc(N2CCNC2=O)n1)NC(c1ccccc1)C1CC1 (centres undefined)	-24.25%
Cc1ccc(S(=O)(=O)NCc2cccc(C(=O)N3CCCC3)c2)cc1F	-23.63%
CCOc1ccccc1CSc1nnc(CC2CCS(=O)(=O)C2)n1C (centres undefined)	-25.08%
CCn1cc(-c2nn3c(C(F)(F)F)nnc3s2)c(C)n1	-17.42%
CCN(c1ccc(C(=O)N2CCC(C)CC2)cc1)S(=O)(=O)CC	-4.292%
CN(Cc1nc(C(C)(C)C)no1)C1CCS(=O)(=O)C1 (centres undefined)	2.442%
O=C(CSc1nccc(-c2ccc3c(c2)OCO3)n1)N1CCOCC1	-22.11%
CCc1n[nH]c(C2CN(C(=O)Cn3ccccc3=O)CCO2)n1 (centres undefined)	-15.4%
OC1(CN2CCCCC2)CCN(c2ccc(C(F)(F)F)cn2)C1 (centres undefined)	-19.53%
O=C(COc1ccc2c(c1)CCC2)NS(=O)(=O)c1cccnc1	-5.635%
O=C(Nc1cccc(C(F)(F)F)c1)N1CCN(CCn2ccnc2)CC1	28.05%
[H][C@]12CC[C@](O)(CC1)C(CO)N2Cc1ccco1 (some centres undefined)	-3.534%

The last 7 entries again:

Compound,effect
CN(Cc1nc(C(C)(C)C)no1)C1CCS(=O)(=O)C1 (centres undefined),2.442%
O=C(CSc1nccc(-c2ccc3c(c2)OCO3)n1)N1CCOCC1,-22.11%
CCc1n[nH]c(C2CN(C(=O)Cn3ccccc3=O)CCO2)n1 (centres undefined),-15.4%
OC1(CN2CCCCC2)CCN(c2ccc(C(F)(F)F)cn2)C1 (centres undefined),-19.53%
O=C(COc1ccc2c(c1)CCC2)NS(=O)(=O)c1cccnc1,-5.635%
O=C(Nc1cccc(C(F)(F)F)c1)N1CCN(CCn2ccnc2)CC1,28.05%
[H][C@]12CC[C@](O)(CC1)C(CO)N2Cc1ccco1 (some centres undefined),-3.534%

The values are deposited in ChEMBL (CHEMBL3988442, “University of Dundee, Small-Polar-MMV Screening Library” (2021)).